# The whole screen tested about 310,000 compounds, of which about 17,000 (5.5%) were called active. This list was built around the results that the source calls inconclusive (neither active nor inactive); the mix of calls is not that of the screen. The call rests on the fitted dose curve; in most records, active means well fitted inhibition curve with a large enough effect; inconclusive means small, poorly fitted or top-dose-only effect, or effect the other way; inactive means no such curve, though single readings can be large or run the other way. Potencies of inconclusive entries are doubtful fits and often do not repeat.
# Amino acid sequences for entries named in this document (tags omitted). A change or cut given only in a name is not applied to a line headed by its entry.
# UniProt P51450: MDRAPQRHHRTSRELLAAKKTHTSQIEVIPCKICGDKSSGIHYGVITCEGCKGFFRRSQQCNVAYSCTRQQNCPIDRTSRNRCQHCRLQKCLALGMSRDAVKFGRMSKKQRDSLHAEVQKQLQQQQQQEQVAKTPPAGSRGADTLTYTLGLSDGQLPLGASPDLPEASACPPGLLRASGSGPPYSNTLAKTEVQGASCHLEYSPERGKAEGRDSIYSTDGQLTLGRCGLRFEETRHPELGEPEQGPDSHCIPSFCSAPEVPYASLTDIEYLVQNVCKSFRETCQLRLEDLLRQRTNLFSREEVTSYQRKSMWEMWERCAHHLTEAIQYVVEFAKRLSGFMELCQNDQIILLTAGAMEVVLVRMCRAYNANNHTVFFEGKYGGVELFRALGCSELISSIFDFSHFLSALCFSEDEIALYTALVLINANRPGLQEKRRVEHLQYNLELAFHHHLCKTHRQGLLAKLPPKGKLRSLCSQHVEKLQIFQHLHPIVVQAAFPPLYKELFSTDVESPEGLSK
# Biological target: Nuclear receptor ROR-gamma (Mus musculus) (UniProt P51450)
# Assay: qHTS for inhibitors of ROR gamma transcriptional activity; further: nearly all actives have a fitted effect of over 60% in size
# Conditions: Drosophila S2 Gal4-RORgamma UAS-luciferase reporter, 20 h; series mostly up to 53.6 µM
# How it was run: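 Stably transfected Drosophila Schneider cells are the test system, with ROR gamma fused to Gal4 and luciferase under UAS control; luminescence is read after 20 hr of 700 uM copper sulfate induction at ambient temperature.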
# Potency means the concentration at half of the fitted maximal effect.
row,Compound,Potency
1,Cc1cnn(C(=S)NCCc2ccccc2)c1,active: 14.1 µM
2,Oc1c(C(Nc2nc3ccccc3s2)c2ccco2)ccc2cccnc12 (stereo not given),active: 2.51 µM
3,CC(C)CC(=O)N/C(N)=N/c1nc2ccccc2o1,active: 10 µM
4,Cc1nn(Cc2ccccc2)c(C)c1/C=N/NC(=O)c1cccnc1,"inconclusive: 6.31 µM [activator, single point]"
5,C=CCn1c(C)cc(C(=O)CN2C(=O)c3ccccc3C2=O)c1C,"inconclusive: 35.5 µM [inhibitor, single point]"
6,CC(C(=O)N1CCc2ccccc21)N1CCN(c2cccc(C(F)(F)F)c2)CC1 (stereo not given),"inconclusive: 35.5 µM [activator, single point]"
7,CN(C)/C=N/C(=S)Nc1ccccc1Cl,active: 6.31 µM
8,O=[N+]([O-])c1nn(-c2ccc3c(c2)OCCO3)n(O)c1=Nc1ccc(Cl)cc1,"inconclusive: 35.5 µM [activator, single point]"
9,COc1ccc(-c2csc(Nc3cc(C)ccn3)n2)cc1C,"inconclusive: 20 µM [inhibitor, single point]"
10,O=C(COC(=O)Cc1c(Cl)cccc1Cl)NCC1CCCO1 (stereo not given),"inconclusive: 39.8 µM [activator, partial curve, poor fit]"
11,S=c1[nH]nc(CSc2nc3ccccc3s2)n1C1CCCCC1,active: 0.199 µM
12,COc1cccc(NC(=O)c2ccc(Cn3cc([N+](=O)[O-])cn3)o2)c1,"inconclusive: 22.4 µM [activator, single point]"
13,COc1cccc(NC(=O)Nc2cccc(C(=O)O)c2)c1,"inconclusive: 10 µM [inhibitor, partial curve]"
14,Cc1ccc(/C=N/NC(=O)c2cccc(NC(=O)c3ccccc3Cl)c2)o1,inactive
15,C=CCSC(=C(C#N)C#N)c1cc2c([nH]1)CCCC2,"inconclusive: 22.4 µM [inhibitor, single point]"
16,CCOC(=O)Cn1c(-c2ccccc2)cc(SC)c(C#N)c1=O,inactive
17,COc1ccc(CCC(=O)N2CCN(c3cccc(C)c3C)CC2)cc1,inactive
18,COCC1CCCN(C(=O)c2ccc3oc(Cc4ccc(Cl)cc4)nc3c2)C1 (stereo not given),"inconclusive: 15.8 µM [activator, single point]"
19,CCCCCCc1cc2cc(S(=O)(=O)c3ccc(F)c(Cl)c3)c(=O)oc2cc1O,"inconclusive: 15.8 µM [inhibitor, single point]"
20,COc1ccc(N(C(C)C(=O)N/N=C/c2ccc(OCC(C)C)cc2)S(C)(=O)=O)cc1 (stereo not given),inactive
21,COc1ccc(-c2nnc(SCC(=O)c3ccc[nH]3)n2-c2ccccc2)cc1,"inconclusive: 11.2 µM [activator, partial curve]"
22,Cc1cccc(S(=O)(=O)c2c(N)n(/N=C/c3ccco3)c3nc4ccccc4nc23)c1,"inconclusive: 5.01 µM [inhibitor, partial curve]"
23,O=C1c2ccccc2NC(c2ccc(Cl)cc2Cl)N1O (stereo not given),active: 3.55 µM
24,Cc1ccc(N2CCC(N3CCN(C4CCCCC4)C(CCO)C3)CC2)cc1 (stereo not given),inactive
25,COc1ccc(/C=C/C(=O)Nc2ccccc2)cc1OC,inactive

# A stretch taken from the entries so far, as a working copy:
row,Compound,Potency
19,CCCCCCc1cc2cc(S(=O)(=O)c3ccc(F)c(Cl)c3)c(=O)oc2cc1O,"inconclusive: 15.8 µM [inhibitor, single point]"
20,COc1ccc(N(C(C)C(=O)N/N=C/c2ccc(OCC(C)C)cc2)S(C)(=O)=O)cc1 (stereo not given),inactive
21,COc1ccc(-c2nnc(SCC(=O)c3ccc[nH]3)n2-c2ccccc2)cc1,"inconclusive: 11.2 µM [activator, partial curve]"
22,Cc1cccc(S(=O)(=O)c2c(N)n(/N=C/c3ccco3)c3nc4ccccc4nc23)c1,"inconclusive: 5.01 µM [inhibitor, partial curve]"
23,O=C1c2ccccc2NC(c2ccc(Cl)cc2Cl)N1O (stereo not given),active: 3.55 µM

# Additional entries follow:

row,Compound,Potency
1,CC(C)c1ccc(NC(=O)c2ccc3c(c2)C(=O)N(Cc2cccnc2)C3=O)cc1,"inconclusive: 3.55 µM [inhibitor, single point]"
2,O=c1[nH]nc(Sc2ncnc3sccc23)n1CCc1ccccc1,active: 15.8 µM
3,Cc1cccc(C)c1NC(=O)COC(=O)c1ccc(N2CCCC2)c([N+](=O)[O-])c1,inactive
4,CCc1ccc(OCC(=O)N(C)C)c(Br)c1,"inconclusive: 5.01 µM [inhibitor, single point]"
5,Fc1ccc(-c2ccnc(=S)[nH]2)cc1,active: 3.55 µM
6,CCCc1nc(SCC(=O)c2ccc(OC)cc2)c2ccccc2n1,"inconclusive: 11.2 µM [inhibitor, partial curve]"
7,Nc1cccc2c1C(=O)N(C(=O)/C=C/c1ccc(F)cc1)C2=O,active: 12.6 µM
8,COc1ccccc1NC(=O)N1CCN(C(=O)c2ccco2)CC1,inactive
9,Cc1onc(-c2ccccc2)c1C(=O)NC(=S)Nc1sc2c(c1C#N)CCC(C)C2 (stereo not given),active: 2.82 µM
10,COc1ccccc1CNC(=O)CCc1ccccc1,"inconclusive: 22.4 µM [activator, single point]"
11,Cc1ccc2oc(-c3cccc(NC(=O)C4CCCO4)c3)nc2c1 (stereo not given),"inconclusive: 12.6 µM [inhibitor, single point]"
12,Cn1c(NN)nc2ccccc2c1=O,"inconclusive: 35.5 µM [inhibitor, single point]"
13,CN1/C(=C\C(=S)Nc2ccccc2)C(C)(C)c2ccccc21,"inconclusive: 3.98 µM [inhibitor, full curve, poor fit]"
14,CCCC(=O)Nc1c(-c2ccccc2OC)c(=O)c2ccccc2n1C,inactive
15,CS(=O)(=O)N1CCC2(CC1)CN(c1cccc(-c3ccccc3)c1)C2,inactive
16,COc1cc(NC(=O)CSc2nnc(-c3cc(C)on3)o2)cc(OC)c1,inactive
17,COc1cc2nc(N3CCN(C(=O)OCc4ccccc4)[C@H](C(=O)NC(C)(C)C)C3)nc(N)c2cc1OC,"inconclusive: 20 µM [activator, single point]"
18,O=C(CN1c2ccccc2Sc2ccccc21)NNC(=S)Nc1ccc(Cl)cc1,active: 10 µM
19,CCC(c1nnc(SCC(=O)Nc2c(F)cccc2F)n1Cc1ccccc1)N(C)C (stereo not given),"inconclusive: 28.2 µM [activator, single point]"
20,CN(Cc1ccccc1)C(=O)C1CCCN(Cc2cccc(Cl)c2)C1 (stereo not given),inactive
21,C=CCNC(=S)N/N=C/c1ccc(-c2cccc([N+](=O)[O-])c2)o1,active: 0.501 µM
22,CCc1cc2c(=O)c(-c3ccc4c(c3)OCCO4)c(C)oc2cc1OS(C)(=O)=O,inactive
23,O=C(NCc1ccccc1)c1cccc(COc2ccc(Cl)cc2)c1,"inconclusive: 10 µM [activator, partial curve]"
24,C[C@@H](NC(=O)c1nc[nH]c1C(=O)N[C@@H](CCCCNC(=O)OC(C)(C)C)C(=O)OC(C)(C)C)c1ccccc1,inactive
25,Cn1cccc1C(=O)N1CCC[C@@]2(CCN(Cc3ccccc3)C2)C1,inactive

row,Compound,Potency
1,O=C(ON=C1CCN(S(=O)(=O)c2ccccc2)CC1)c1cccc(Cl)c1,"inconclusive: 3.55 µM [inhibitor, full curve, poor fit]"
2,CN(/N=C/c1ccccc1O)C(=S)c1ccccc1,"inconclusive: 17.8 µM [inhibitor, single point]"
3,O=C1C2C(c3ccccc3)CC=CC2C(c2ccc(C(F)(F)F)cc2)N1Cc1ccccc1 (stereo not given),"inconclusive: 35.5 µM [inhibitor, single point]"
4,COc1cc(S(=O)(=O)NCc2ccccc2Cl)ccc1-n1cnnn1,"inconclusive: 35.5 µM [activator, single point]"
5,C/C(=N\Nc1nc(-c2ccccc2O)nc2ccccc12)c1ccccc1,active: 4.47 µM
6,Cc1ccc2nc(N3CC(=O)Nc4ccccc43)nc(-c3ccccc3)c2c1,"inconclusive: 3.98 µM [inhibitor, single point]"
7,CC(OC(=O)c1cc2c(ccc3ccccc32)oc1=O)c1nc2ccccc2s1 (stereo not given),"inconclusive: 12.6 µM [activator, single point]"
8,COc1ccc(Oc2cn[nH]c2-c2ccc(OC)cc2O)cc1,"inconclusive: 11.2 µM [inhibitor, partial curve, poor fit]"
9,CCOc1ccc2nc(NCCNC(=O)C(C)C)c(C)cc2c1,inactive
10,CCN(CC)C(=O)CC(c1ccc(F)cc1)c1ccc(OC(C)C)cc1 (stereo not given),"inconclusive: 15.8 µM [activator, single point]"
11,CNc1ccccc1C(C)(C)c1cc(-c2cccc(OC)c2)no1,active: 1.41 µM
12,Cc1ccccc1NC(=O)CSc1nc2ccccc2c(=O)n1C,"inconclusive: 6.31 µM [activator, full curve]"
13,CCC(C(=O)N1CC2(C)CC1CC(C)(C)C2)N1C(=O)c2ccccc2C1=O (stereo not given),"inconclusive: 35.5 µM [inhibitor, single point]"
14,Nc1ccc(C(=O)O)c(O)c1 (tested in a mixture with another compound),"inconclusive: 11.2 µM [inhibitor, single point]"
15,O=C(c1ccc(Cl)cc1Cl)N1CCC(c2nc3c(nnn3Cc3ccco3)c(=O)[nH]2)CC1,"inconclusive: 7.08 µM [activator, partial curve]"
16,Cc1ccc2[nH]c(C(=O)O)c(NC(=O)CN3CCN(c4cccc(C)c4C)CC3)c2c1,"inconclusive: 20 µM [inhibitor, single point]"
17,COc1ccccc1-c1cc(C(F)(F)F)n2ncc(C(=O)N3CCc4ccccc4C3)c2n1,inactive
18,O=C(CC(Nc1cccc(Cl)c1Cl)C(=O)O)c1ccccc1 (stereo not given),active: 11.2 µM
19,Cc1cc2c(NC(=O)Nc3ccc(F)cc3)cccc2nn1,inactive
20,N#CCCN(C(=O)COC(=O)CCc1ccccc1)c1ccccc1,inactive
21,O=C(Nc1ccc2c(c1)OCCO2)NC1(C(F)(F)F)Oc2ccccc2O1,"inconclusive: 7.08 µM [inhibitor, full curve, poor fit]"
22,CCOc1c2c(nc3ccc(Cl)cc13)CCC2,active: 11.2 µM
23,Cc1nc2sc(C(=O)Nc3ccccc3Cc3ccccc3)c(C)c2c(=O)[nH]1,inactive
24,Cc1cc(C(=O)Nc2ccccc2[N+](=O)[O-])cs1,"inconclusive: 5.62 µM [inhibitor, full curve, poor fit]"
25,CC1(OC(=O)CCc2ccccc2)C(=O)C=C2C=C(c3ccc(C#N)cc3)N(CC3CC3)C=C2C1=O (stereo not given),inactive

# Reference: PubChem BioAssay AID2551 (National Center for Advancing Translational Sciences (NCATS), 2010)
